# Data published in PubChem BioAssay AID1671190 (National Center for Advancing Translational Sciences (NCATS), 2021).
# Sequences of proteins named here, by UniProt entry; tags and fusion partners are left off. A change or cut given only in a name is not applied to a line headed by its entry.
# UniProt P18054: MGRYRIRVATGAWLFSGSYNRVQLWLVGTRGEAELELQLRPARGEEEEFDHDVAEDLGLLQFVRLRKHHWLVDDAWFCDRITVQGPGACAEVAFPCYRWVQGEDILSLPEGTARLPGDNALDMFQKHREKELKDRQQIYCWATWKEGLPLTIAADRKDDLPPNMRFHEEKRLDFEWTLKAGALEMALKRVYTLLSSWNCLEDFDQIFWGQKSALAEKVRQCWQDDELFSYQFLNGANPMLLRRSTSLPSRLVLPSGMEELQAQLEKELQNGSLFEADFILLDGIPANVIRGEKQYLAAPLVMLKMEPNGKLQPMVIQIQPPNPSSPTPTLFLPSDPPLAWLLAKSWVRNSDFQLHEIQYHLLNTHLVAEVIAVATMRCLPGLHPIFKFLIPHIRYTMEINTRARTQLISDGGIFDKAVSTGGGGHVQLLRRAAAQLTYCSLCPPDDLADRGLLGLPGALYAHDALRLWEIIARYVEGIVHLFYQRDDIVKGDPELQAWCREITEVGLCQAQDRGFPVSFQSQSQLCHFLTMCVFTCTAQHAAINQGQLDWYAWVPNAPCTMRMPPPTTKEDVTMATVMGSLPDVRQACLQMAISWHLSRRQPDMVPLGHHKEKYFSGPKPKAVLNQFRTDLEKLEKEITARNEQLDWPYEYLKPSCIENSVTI
# “And” between values parts separate entries of the source, which are not always exact repeats. Equal entries are not always repeated. About 6,100 (1.1%) of roughly 580,000 compounds were called active. This list was built around the results that the source calls inconclusive (neither active nor inactive); the mix of calls is not that of the screen. Calls follow the shape of the dose curve; as a rule, active = well fitted inhibition curve with a large enough effect; inconclusive = small, poorly fitted or top-dose-only effect, or another doubt; inactive = no such curve, though single readings can be large or run the other way. Potencies beside an inconclusive call are fits to weak or partial responses and may not hold up.
# Target: Polyunsaturated fatty acid lipoxygenase ALOX12 (Homo sapiens) (UniProt P18054)
# Test: Primary qHTS assay for inhibitors of human arachidonate 12S-lipoxygenase (ALOX12): Round 2
# Settings: purified 12hLO, xylenol orange hydroperoxide absorbance; activity change, negative = inhibition: at 108 µM (top of the series) unless noted
# Procedure, shortened: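 Purified human 12hLO at 150 nM in 25 mM Hepes, 0.01% Triton X-100, pH 7.0, preincubated 15 min at room temperature with compound. Reaction started with 40 uM arachidonic acid, 30 min at room temperature. Hydroperoxide measured by Fe-xylenol orange, 573/405 nm absorbance ratio.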
# % is scaled to controls: 0 for no effect and ±100 for the full control effect; potency is read from the fitted curve at half-maximal effect.
SMILES,Potency,"activity change, negative = inhibition"
O=C(O)/C(=C\c1ccc(F)cc1)NC(=O)c1ccco1,"inconclusive: 28.2 µM [inhibitor, single point]",
CCC(C)Sc1cccc(-c2nc3ccc(C)cn3c2NCc2ccccc2)c1 (stereo unspecified),"inconclusive: 44.7 µM [inhibitor, partial curve, poor fit]",
CC(=O)N1CCC(C(=O)N2CCN(c3cccc(Cl)c3)CC2)CC1,,inactive: 0%
Cc1ccc(S(=O)(=O)N2C[C@@H]3[C@H]4CC[C@H](C4)[C@@H]3[C@@H](C)[C@H]2C#N)cc1,"inconclusive: 3.16 µM [inhibitor, full curve, poor fit]",
O=C(Nc1cccc(Cl)c1)N1N=CCC1c1ccccc1 (stereo unspecified),,inactive: 149%
COC(=O)N1CCC2(C1)OC(=O)Nc1ccccc12 (stereo unspecified),"inconclusive: 22.4 µM [inhibitor, full curve, poor fit]",
O=C(Nc1cc(Br)ccc1O)C1CC(c2ccccc2Cl)=NO1 (stereo unspecified),"inconclusive: 70.8 µM [inhibitor, partial curve, poor fit]",
O=C(NC1CCCC1)c1ccc2c(c1)N(Cc1ccccc1)CCS2,,inactive: 3.25%
Cc1ccc(-c2nc(CNC(=O)CC3CNCCO3)[nH]c2-c2ccccn2)cc1 (stereo unspecified),,inactive: 75.9%
Cc1csc(NC(=O)CSc2nc3ccccc3c3c2CCCC3)n1,"inconclusive: 14.1 µM [inhibitor, full curve, poor fit]",
CCOc1ccccc1CNC(=O)CCc1cn(C)c2ccccc12,"inactive and inconclusive: 141 µM [inhibitor, partial curve, poor fit]",
CC(C(=O)NCc1ccccc1)n1ccc2cc(S(=O)(=O)N3CCCC3)ccc21 (stereo unspecified),,inactive: -1.01%
CCCCCNC(=O)NCCc1c[nH]c2ccccc12,"inconclusive: 79.4 µM [inhibitor, single point]",
Cc1nc(SCC(=O)N2CCOCC2)c2c(C)c(C)sc2n1,,inactive: -0.782%
CCOc1ccc(S(=O)(=O)Nc2cc3c(C(=O)OCc4ccccc4)c(C)oc3c3ccccc23)cc1,,inconclusive: -43.9% [inhibitor]
O=C(CCSc1nc(-c2ccc3c(c2)OCO3)cc(C(F)(F)F)n1)NCc1ccccc1,,inactive: 0%
COc1ccc(C2=NOC(Cn3nc(C(=O)O)cc3-c3ccccc3)C2)cc1 (stereo unspecified),"inconclusive: 112 µM [inhibitor, single point]",
CC1CCN(Cc2c(C(=O)N/N=C/c3ccc(C(C)C)cc3)nnn2-c2nonc2N)CC1,"inconclusive: 56.2 µM [inhibitor, single point]",
O=C(O)c1cn(Cc2ccccc2)c2ccccc2c1=O,"inconclusive: 2.82 µM [inhibitor, full curve, poor fit]",
CCn1cc(/C=C(\NC(=O)c2ccc(C)cc2)C(=O)NCCN2CCOCC2)c2ccccc21,"inconclusive: 50.1 µM [inhibitor, partial curve, poor fit]",
COc1ccc2c(c1)c1c(c(=O)n(-c3cc(Cl)ccc3C)c(=O)n1Cc1ccc(F)cc1)n2C,"inconclusive: 141 µM [inhibitor, single point]",

# Pulled by structure from the entries so far:
SMILES,Potency,"activity change, negative = inhibition"
COc1ccc(C2=NOC(Cn3nc(C(=O)O)cc3-c3ccccc3)C2)cc1 (stereo unspecified),"inconclusive: 112 µM [inhibitor, single point]",
O=C(NC1CCCC1)c1ccc2c(c1)N(Cc1ccccc1)CCS2,,inactive: 3.25%

# Going on with the list.

SMILES,Potency,"activity change, negative = inhibition"
O=[N+]([O-])c1ccc(-c2cn(-c3ccc(Cl)cc3)cn2)cc1,"inconclusive: 0.224 µM [inhibitor, full curve, poor fit]",
COc1cccc(-c2cc(NCc3cnc(C)cn3)ncn2)c1,"inconclusive: 44.7 µM [inhibitor, partial curve, poor fit]",
Cc1cc(C)nc(NCC(O)CNc2ccccc2Cl)n1 (stereo unspecified),active: 39.8 µM,
CC(=O)Nc1ccc(NC(=O)C(C)OC(=O)/C=C/c2ccc3c(c2)OCO3)cc1 (stereo unspecified),"inconclusive: 63.1 µM [inhibitor, partial curve, poor fit]",
CCOc1cccc(CN2CC(c3nc(Cc4cccnc4)no3)C2)c1,,inactive: 8.9%
Cc1nccn1C[C@@H]1CCc2c(c3ccccc3n2C)C1=O,"inconclusive: 50.1 µM [inhibitor, partial curve, poor fit]",
CCNC(=S)Nc1ccc(C)cc1Cl,,inactive: -14.4%
Cc1c(Cl)cccc1-n1ncc(C(=O)NC2CCCC2)c1C1CCN(C(=O)OC(C)(C)C)CC1,"inconclusive: 112 µM [inhibitor, single point]",
C=CCN(CC=C)S(=O)(=O)c1ccc(NC(=S)NC(=O)C2CC2)cc1,"inconclusive: 44.7 µM [inhibitor, partial curve, poor fit]",
O=C(c1cccs1)N1C[C@@H](O)[C@H](n2cc(C3CC3)nn2)C[C@@H]1c1ccc(Cl)cc1,"inconclusive: 50.1 µM [inhibitor, partial curve, poor fit]",
Cc1c(CC(=O)O)c(=O)oc2c(C)c(OCc3ccccc3F)ccc12,"inconclusive: 2.82 µM [inhibitor, full curve, poor fit]",
COc1ccc2cc(CN(C)C(=O)CN3C(=O)NC4(CCCC4)C3=O)ccc2c1,"inconclusive: 44.7 µM [inhibitor, partial curve, poor fit]",
C/C(=N\NC(N)=S)c1cccnc1,,inactive: -6.29%
Cc1ccc(S(=O)(=O)Nc2ccc(O)c(Sc3ncn[nH]3)c2)cc1,"inconclusive: 44.7 µM [inhibitor, partial curve, poor fit]",
CCCC(C)c1nnc(NC(=O)CCS(=O)(=O)Cc2ccccc2)s1 (stereo unspecified),"inconclusive: 56.2 µM [inhibitor, partial curve, poor fit]",
CN1CCCC2(C1)CN(Cc1cccnc1)c1ccc(C(=O)NCc3cccs3)cc12 (stereo unspecified),"inconclusive: 79.4 µM [inhibitor, partial curve, poor fit]",
O=C(O)c1cccc(-c2ccc(/C=N/O)o2)c1,"inconclusive: 11.2 µM [inhibitor, full curve]",
Cc1ncccc1C(=O)N1CC(Oc2ccc(-c3nc(-c4ccccc4)no3)cc2)C1,"inconclusive: 35.5 µM [inhibitor, full curve, poor fit]",
CCCCN(C=O)c1c(CC)nc2ccc(C(=O)N3CCN(C)CC3)cn12,"inconclusive: 89.1 µM [inhibitor, single point]",
COc1cccc(NC(=O)CSc2nc(=O)[nH]c3c2CCCC3)c1,"inconclusive: 141 µM [inhibitor, partial curve, poor fit]",
